{"source": "PubChem BioAssay AID1259264 (Sanger Institute, 2017)", "aim": "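Kinases whose loss cuts CL40 colorectal cancer cell survival, alone or with drugs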 (primary screen)", "cells": "CL40 human colorectal cancer cells", "reagent": "siRNA pool against human genes", "treatment": "DMSO, or an anchor drug: BYL719 at 1 µM, cetuximab at 5 µg/ml, or trametinib at 10 nM", "detection": "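Viability as a fraction of non-targeting pool control (replicates averaged), control-based robust z-score, plus averaged synergy for each drug: BYL719 1 µM, cetuximab 5 µg/ml, trametinib 10 nM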", "reading the numbers": "robust z-score, siRNA alone: higher = more viable cells", "active means": "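a gene counts as essential when knock-down without drug gives a robust z-score below -3, meaning fewer cells; synergy scores play no part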", "meaning of the calls": "active = essential (lowers viability alone); inactive = not essential", "note": "The deposit covers 794 reagents; this is a part drawn at random. 15 of them (1.9%) count as active. 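Calls rest on knock-down alone at z-score below -3; synergy scores with the three drugs do not decide them.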 A number with no mark means an inactive call. Further read-outs or replicates are left out here. Not given: the amount of reagent, the time to read-out."}
{"Target gene": "NEK9 (NIMA related kinase 9)", "robust z-score, siRNA alone": -0.637}
{"Target gene": "CUL1 (cullin 1)", "robust z-score, siRNA alone": 0.539}
{"Target gene": "FYN (FYN proto-oncogene, Src family tyrosine kinase)", "robust z-score, siRNA alone": 0.087}
{"Target gene": "PLK4 (polo like kinase 4)", "robust z-score, siRNA alone": -1.46}
{"Target gene": "CAMK1D (calcium/calmodulin dependent protein kinase ID)", "robust z-score, siRNA alone": 0.539}
{"Target gene": "FGFRL1 (fibroblast growth factor receptor like 1)", "robust z-score, siRNA alone": 0.199}
{"Target gene": "AMHR2 (anti-Mullerian hormone receptor type 2)", "robust z-score, siRNA alone": -0.61}
{"Target gene": "MAP3K19 (mitogen-activated protein kinase kinase kinase 19)", "robust z-score, siRNA alone": 0.271}
{"Target gene": "CDKL1 (cyclin dependent kinase like 1)", "robust z-score, siRNA alone": -0.372}
{"Target gene": "ASPM (assembly factor for spindle microtubules)", "robust z-score, siRNA alone": 0.539}
{"Target gene": "NEK2 (NIMA related kinase 2)", "robust z-score, siRNA alone": 0.384}
{"Target gene": "AK1 (adenylate kinase 1)", "robust z-score, siRNA alone": -0.0697}
{"Target gene": "VRK1 (VRK serine/threonine kinase 1)", "robust z-score, siRNA alone": "-4.52 (active)"}
{"Target gene": "DGKK (diacylglycerol kinase kappa)", "robust z-score, siRNA alone": 0.539}
{"Target gene": "PRKACG (protein kinase cAMP-activated catalytic subunit gamma)", "robust z-score, siRNA alone": 0.539}
{"Target gene": "BRDT (bromodomain testis associated)", "robust z-score, siRNA alone": 0.539}
{"Target gene": "SCYL3 (SCY1 like pseudokinase 3)", "robust z-score, siRNA alone": 0.324}
{"Target gene": "PIK3R1 (phosphoinositide-3-kinase regulatory subunit 1)", "robust z-score, siRNA alone": 0.373}
{"Target gene": "CALM1 (calmodulin 1)", "robust z-score, siRNA alone": 0.539}
{"Target gene": "ROS1 (ROS proto-oncogene 1, receptor tyrosine kinase)", "robust z-score, siRNA alone": -0.442}
{"Target gene": "PLK2 (polo like kinase 2)", "robust z-score, siRNA alone": -0.739}
{"Target gene": "IGF1R (insulin like growth factor 1 receptor)", "robust z-score, siRNA alone": 0.414}
{"Target gene": "CASK (calcium/calmodulin dependent serine protein kinase)", "robust z-score, siRNA alone": 0.539}
{"Target gene": "DAPK2 (death associated protein kinase 2)", "robust z-score, siRNA alone": -0.0218}
{"Target gene": "DGKI (diacylglycerol kinase iota)", "robust z-score, siRNA alone": 0.539}
{"Target gene": "PRKCH (protein kinase C eta)", "robust z-score, siRNA alone": 0.539}
{"Target gene": "PFKP (phosphofructokinase, platelet)", "robust z-score, siRNA alone": -0.00919}
{"Target gene": "MINK1 (misshapen like kinase 1)", "robust z-score, siRNA alone": 0.539}

A portion from the list above, for reference:
{"Target gene": "CDKL1 (cyclin dependent kinase like 1)", "robust z-score, siRNA alone": -0.372}
{"Target gene": "ASPM (assembly factor for spindle microtubules)", "robust z-score, siRNA alone": 0.539}
